{"source": "PubChem BioAssay AID652259 (Drosophila RNAi Screening Center, 2013)", "aim": "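Identify new Wingless signalling regulators in fly cells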 (primary screen)", "system": "Drosophila clone 8 imaginal disc epithelial cells", "reagent": "long dsRNA against Drosophila genes", "challenge": "pathway stimulated by co-transfected Wingless expression plasmid", "detection": "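Dual luciferase reads per well after Wingless plasmid stimulation: reporter firefly light and Renilla control light; activity is firefly divided by Renilla, a ratio not deposited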", "reading the numbers": "firefly reporter light: higher = more Wg reporter light, before normalisation; Renilla control light: higher = more transfected or surviving cells", "rule for the call": "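a knock-down is a candidate when at least two out of four statistical tests show it departing from its plate mean; one test alone signals a weak candidate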", "meaning of the calls": "active = candidate regulator (raises or lowers reporter); inactive = not a candidate", "note": "The deposit covers about 22,000 reagents; shown is a random part of those with a known target gene and a result. Of all reagents, 233 (1.1%) got an active call. 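Light values are raw, unnormalised plate reads; the ratio scores behind the reporter calls were not deposited.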 Reagents against one gene are numbered here. The record does not give: the amount of reagent, the time to read-out, the dose of the treatment."}
{"target gene": "CG5916 (GeneID 41960)", "dsRNA no.": 1, "firefly reporter light, replicate 1": 3334, "firefly reporter light, replicate 2": 5095, "Renilla control light, replicate 1": 801, "Renilla control light, replicate 2": 2027, "outcome": "inactive"}
{"target gene": "akirin (GeneID 38821)", "dsRNA no.": 1, "reporter change call, replicate 1": "Wg reporter activity lowered", "firefly reporter light, replicate 1": 2568, "Renilla control light, replicate 1": 2618, "outcome": "active"}
{"target gene": "cu (GeneID 41339)", "dsRNA no.": 1, "firefly reporter light, replicate 1": 9932, "Renilla control light, replicate 1": 3668, "outcome": "inactive"}
{"target gene": "cu (GeneID 41339)", "dsRNA no.": 2, "firefly reporter light, replicate 1": 25003, "Renilla control light, replicate 1": 7971, "outcome": "inactive"}
{"target gene": "CG10182 (GeneID 42780)", "dsRNA no.": 1, "firefly reporter light, replicate 1": 14730, "Renilla control light, replicate 1": 8490, "outcome": "inactive"}
{"target gene": "Mabi (GeneID 34727)", "dsRNA no.": 1, "firefly reporter light, replicate 1": 4945, "firefly reporter light, replicate 2": 9931, "Renilla control light, replicate 1": 2051, "Renilla control light, replicate 2": 4726, "outcome": "inactive"}
{"target gene": "EloA (GeneID 42749)", "dsRNA no.": 1, "firefly reporter light, replicate 1": 1444, "firefly reporter light, replicate 2": 4422, "Renilla control light, replicate 1": 730, "Renilla control light, replicate 2": 1843, "outcome": "inactive"}
{"target gene": "CG32563 (GeneID 32706)", "dsRNA no.": 1, "firefly reporter light, replicate 1": 20405, "Renilla control light, replicate 1": 9853, "outcome": "inactive"}
{"target gene": "INPP5E (GeneID 39404)", "dsRNA no.": 1, "firefly reporter light, replicate 1": 5088, "Renilla control light, replicate 1": 1699, "outcome": "inactive"}
{"target gene": "Jheh2 (GeneID 37181)", "dsRNA no.": 1, "firefly reporter light, replicate 1": 7270, "Renilla control light, replicate 1": 2265, "outcome": "inactive"}
{"target gene": "bru1 (GeneID 34648)", "dsRNA no.": 1, "firefly reporter light, replicate 1": 20656, "Renilla control light, replicate 1": 4736, "outcome": "inactive"}
{"target gene": "bru1 (GeneID 34648)", "dsRNA no.": 2, "firefly reporter light, replicate 1": 16473, "Renilla control light, replicate 1": 5095, "outcome": "inactive"}
{"target gene": "bru1 (GeneID 34648)", "dsRNA no.": 3, "firefly reporter light, replicate 1": 17900, "Renilla control light, replicate 1": 8576, "outcome": "inactive"}
{"target gene": "bru1 (GeneID 34648)", "dsRNA no.": 4, "firefly reporter light, replicate 1": 23437, "Renilla control light, replicate 1": 9717, "outcome": "inactive"}
{"target gene": "bru1 (GeneID 34648)", "dsRNA no.": 5, "firefly reporter light, replicate 1": 10040, "Renilla control light, replicate 1": 2160, "outcome": "inactive"}
{"target gene": "Ak3 (GeneID 41318)", "dsRNA no.": 1, "firefly reporter light, replicate 1": 12593, "Renilla control light, replicate 1": 3225, "outcome": "inactive"}

4 entries from above, reformatted.
EloA (GeneID 42749)
- firefly reporter light, replicate 1: 1444
- firefly reporter light, replicate 2: 4422
- Renilla control light, replicate 1: 730
- Renilla control light, replicate 2: 1843
- outcome: inactive

CG32563 (GeneID 32706)
- firefly reporter light, replicate 1: 20405
- Renilla control light, replicate 1: 9853
- outcome: inactive

INPP5E (GeneID 39404)
- firefly reporter light, replicate 1: 5088
- Renilla control light, replicate 1: 1699
- outcome: inactive

Jheh2 (GeneID 37181)
- firefly reporter light, replicate 1: 7270
- Renilla control light, replicate 1: 2265
- outcome: inactive

Additional records follow.
{"target gene": "Vm26Ab (GeneID 33827)", "dsRNA no.": 1, "firefly reporter light, replicate 1": 4102, "firefly reporter light, replicate 2": 10579, "Renilla control light, replicate 1": 1907, "Renilla control light, replicate 2": 4497, "outcome": "inactive"}
{"target gene": "CG32461 (GeneID 318042)", "dsRNA no.": 1, "firefly reporter light, replicate 1": 3781, "Renilla control light, replicate 1": 1367, "outcome": "inactive"}
{"target gene": "HP4 (GeneID 38887)", "dsRNA no.": 1, "firefly reporter light, replicate 1": 5366, "Renilla control light, replicate 1": 2147, "outcome": "inactive"}
{"target gene": "skl (GeneID 40016)", "dsRNA no.": 1, "firefly reporter light, replicate 1": 6449, "Renilla control light, replicate 1": 3008, "outcome": "inactive"}
{"target gene": "CG13949 (GeneID 33266)", "dsRNA no.": 1, "firefly reporter light, replicate 1": 3184, "firefly reporter light, replicate 2": 11426, "Renilla control light, replicate 1": 1530, "Renilla control light, replicate 2": 4587, "outcome": "inactive"}
{"target gene": "RpL13A (GeneID 40687)", "dsRNA no.": 1, "firefly reporter light, replicate 1": 5723, "Renilla control light, replicate 1": 2677, "outcome": "inactive"}
{"target gene": "CG42697 (GeneID 10178822)", "dsRNA no.": 1, "firefly reporter light, replicate 1": 18957, "Renilla control light, replicate 1": 12376, "outcome": "inactive"}
{"target gene": "CG30172 (GeneID 246496)", "dsRNA no.": 1, "firefly reporter light, replicate 1": 7.37e5, "firefly reporter light, replicate 2": 8.12e5, "Renilla control light, replicate 1": 3.76e5, "Renilla control light, replicate 2": 3.51e5, "outcome": "inactive"}
{"target gene": "Ypel (GeneID 31949)", "dsRNA no.": 1, "firefly reporter light, replicate 1": 1501, "firefly reporter light, replicate 2": 6931, "Renilla control light, replicate 1": 752, "Renilla control light, replicate 2": 2071, "outcome": "inactive"}
